Assay results taken from the supplement of paper PMC12067093, “Discovery and optimisation of a covalent ligand for TRIM25 and its application to targeted protein ubiquitination” (Chemical Science, 2025).
The list shows a part of the results.

By UniProt entry, the sequences of proteins in these tests, tags left out. Where a name states a change or a piece, a line headed by the entry shows the natural chain unless it says otherwise.
UniProt O94966: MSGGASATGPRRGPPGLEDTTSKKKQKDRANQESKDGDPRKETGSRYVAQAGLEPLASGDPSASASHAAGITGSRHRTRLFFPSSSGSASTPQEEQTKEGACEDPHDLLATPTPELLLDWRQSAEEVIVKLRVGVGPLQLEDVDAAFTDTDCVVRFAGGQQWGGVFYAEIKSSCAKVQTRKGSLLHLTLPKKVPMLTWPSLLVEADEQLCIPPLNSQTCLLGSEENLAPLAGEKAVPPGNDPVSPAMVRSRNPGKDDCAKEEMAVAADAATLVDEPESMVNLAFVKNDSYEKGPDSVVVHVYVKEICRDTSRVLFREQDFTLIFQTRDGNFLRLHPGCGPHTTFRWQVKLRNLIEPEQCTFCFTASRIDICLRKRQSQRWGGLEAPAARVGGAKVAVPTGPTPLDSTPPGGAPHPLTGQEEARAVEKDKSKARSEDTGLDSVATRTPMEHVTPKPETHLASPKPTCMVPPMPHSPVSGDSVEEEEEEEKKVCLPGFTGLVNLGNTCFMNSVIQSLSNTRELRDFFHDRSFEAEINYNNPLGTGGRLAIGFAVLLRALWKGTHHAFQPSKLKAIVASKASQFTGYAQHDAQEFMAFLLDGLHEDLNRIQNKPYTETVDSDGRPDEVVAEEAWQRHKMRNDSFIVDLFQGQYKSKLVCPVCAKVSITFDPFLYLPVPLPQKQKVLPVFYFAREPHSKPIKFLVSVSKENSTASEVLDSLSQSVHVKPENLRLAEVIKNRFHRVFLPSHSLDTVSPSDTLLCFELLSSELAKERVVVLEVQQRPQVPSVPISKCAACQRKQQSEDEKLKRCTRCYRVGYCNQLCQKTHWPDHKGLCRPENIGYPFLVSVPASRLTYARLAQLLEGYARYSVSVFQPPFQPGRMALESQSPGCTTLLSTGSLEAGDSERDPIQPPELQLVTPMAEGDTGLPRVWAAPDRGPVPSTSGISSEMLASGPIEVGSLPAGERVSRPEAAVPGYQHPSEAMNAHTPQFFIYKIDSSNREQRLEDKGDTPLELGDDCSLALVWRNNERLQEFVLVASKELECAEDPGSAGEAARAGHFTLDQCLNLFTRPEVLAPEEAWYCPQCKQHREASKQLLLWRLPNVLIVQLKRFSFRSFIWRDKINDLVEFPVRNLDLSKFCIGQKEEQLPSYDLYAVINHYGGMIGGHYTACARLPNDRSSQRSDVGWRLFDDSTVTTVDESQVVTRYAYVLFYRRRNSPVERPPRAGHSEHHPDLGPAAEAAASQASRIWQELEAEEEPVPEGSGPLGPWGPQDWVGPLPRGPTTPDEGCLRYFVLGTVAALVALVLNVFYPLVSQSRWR
UniProt P54578: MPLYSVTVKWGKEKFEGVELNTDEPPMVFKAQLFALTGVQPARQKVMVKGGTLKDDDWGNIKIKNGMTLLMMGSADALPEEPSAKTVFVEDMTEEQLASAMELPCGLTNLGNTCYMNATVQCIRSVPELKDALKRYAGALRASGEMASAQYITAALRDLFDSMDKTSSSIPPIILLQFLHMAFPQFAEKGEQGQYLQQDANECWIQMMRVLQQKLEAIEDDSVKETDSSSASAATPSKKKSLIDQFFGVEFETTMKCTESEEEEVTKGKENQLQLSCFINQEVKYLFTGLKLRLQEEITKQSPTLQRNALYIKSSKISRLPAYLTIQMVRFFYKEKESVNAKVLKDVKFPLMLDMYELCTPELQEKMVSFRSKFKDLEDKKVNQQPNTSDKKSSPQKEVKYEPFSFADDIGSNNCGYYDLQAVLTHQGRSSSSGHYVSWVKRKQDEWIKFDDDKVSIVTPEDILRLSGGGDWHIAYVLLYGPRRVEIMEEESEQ
UniProt Q13107: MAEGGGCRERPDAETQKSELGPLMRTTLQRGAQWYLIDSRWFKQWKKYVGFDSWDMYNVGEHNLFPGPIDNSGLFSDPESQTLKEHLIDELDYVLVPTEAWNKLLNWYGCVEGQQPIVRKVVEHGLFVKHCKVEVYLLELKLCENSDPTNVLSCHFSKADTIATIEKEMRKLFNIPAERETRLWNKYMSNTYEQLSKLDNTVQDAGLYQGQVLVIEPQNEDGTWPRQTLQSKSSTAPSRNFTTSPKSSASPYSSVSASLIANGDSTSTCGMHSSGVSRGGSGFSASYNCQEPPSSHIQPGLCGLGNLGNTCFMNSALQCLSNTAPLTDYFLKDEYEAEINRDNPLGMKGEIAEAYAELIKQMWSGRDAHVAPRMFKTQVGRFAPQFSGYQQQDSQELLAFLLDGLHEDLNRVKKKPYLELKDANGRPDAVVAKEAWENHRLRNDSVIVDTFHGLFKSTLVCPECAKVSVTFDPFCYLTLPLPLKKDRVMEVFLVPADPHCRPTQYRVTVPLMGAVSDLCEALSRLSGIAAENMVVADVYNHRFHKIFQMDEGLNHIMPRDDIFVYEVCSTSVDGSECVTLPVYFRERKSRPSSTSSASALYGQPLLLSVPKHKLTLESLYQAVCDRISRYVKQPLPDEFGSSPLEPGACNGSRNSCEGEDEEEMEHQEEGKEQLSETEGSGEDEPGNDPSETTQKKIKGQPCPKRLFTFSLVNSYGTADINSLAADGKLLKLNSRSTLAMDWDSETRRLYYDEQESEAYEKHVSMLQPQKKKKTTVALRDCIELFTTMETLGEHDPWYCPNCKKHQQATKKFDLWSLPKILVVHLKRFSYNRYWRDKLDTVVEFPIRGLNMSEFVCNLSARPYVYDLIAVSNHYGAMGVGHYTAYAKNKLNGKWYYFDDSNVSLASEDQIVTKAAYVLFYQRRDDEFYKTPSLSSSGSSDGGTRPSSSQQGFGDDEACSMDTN
UniProt P15374: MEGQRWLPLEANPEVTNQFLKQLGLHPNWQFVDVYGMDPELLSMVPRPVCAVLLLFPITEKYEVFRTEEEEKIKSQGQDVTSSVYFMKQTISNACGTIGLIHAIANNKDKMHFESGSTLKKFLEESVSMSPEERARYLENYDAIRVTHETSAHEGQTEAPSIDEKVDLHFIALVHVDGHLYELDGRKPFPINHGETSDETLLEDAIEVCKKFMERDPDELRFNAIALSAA
UniProt Q9UPU5: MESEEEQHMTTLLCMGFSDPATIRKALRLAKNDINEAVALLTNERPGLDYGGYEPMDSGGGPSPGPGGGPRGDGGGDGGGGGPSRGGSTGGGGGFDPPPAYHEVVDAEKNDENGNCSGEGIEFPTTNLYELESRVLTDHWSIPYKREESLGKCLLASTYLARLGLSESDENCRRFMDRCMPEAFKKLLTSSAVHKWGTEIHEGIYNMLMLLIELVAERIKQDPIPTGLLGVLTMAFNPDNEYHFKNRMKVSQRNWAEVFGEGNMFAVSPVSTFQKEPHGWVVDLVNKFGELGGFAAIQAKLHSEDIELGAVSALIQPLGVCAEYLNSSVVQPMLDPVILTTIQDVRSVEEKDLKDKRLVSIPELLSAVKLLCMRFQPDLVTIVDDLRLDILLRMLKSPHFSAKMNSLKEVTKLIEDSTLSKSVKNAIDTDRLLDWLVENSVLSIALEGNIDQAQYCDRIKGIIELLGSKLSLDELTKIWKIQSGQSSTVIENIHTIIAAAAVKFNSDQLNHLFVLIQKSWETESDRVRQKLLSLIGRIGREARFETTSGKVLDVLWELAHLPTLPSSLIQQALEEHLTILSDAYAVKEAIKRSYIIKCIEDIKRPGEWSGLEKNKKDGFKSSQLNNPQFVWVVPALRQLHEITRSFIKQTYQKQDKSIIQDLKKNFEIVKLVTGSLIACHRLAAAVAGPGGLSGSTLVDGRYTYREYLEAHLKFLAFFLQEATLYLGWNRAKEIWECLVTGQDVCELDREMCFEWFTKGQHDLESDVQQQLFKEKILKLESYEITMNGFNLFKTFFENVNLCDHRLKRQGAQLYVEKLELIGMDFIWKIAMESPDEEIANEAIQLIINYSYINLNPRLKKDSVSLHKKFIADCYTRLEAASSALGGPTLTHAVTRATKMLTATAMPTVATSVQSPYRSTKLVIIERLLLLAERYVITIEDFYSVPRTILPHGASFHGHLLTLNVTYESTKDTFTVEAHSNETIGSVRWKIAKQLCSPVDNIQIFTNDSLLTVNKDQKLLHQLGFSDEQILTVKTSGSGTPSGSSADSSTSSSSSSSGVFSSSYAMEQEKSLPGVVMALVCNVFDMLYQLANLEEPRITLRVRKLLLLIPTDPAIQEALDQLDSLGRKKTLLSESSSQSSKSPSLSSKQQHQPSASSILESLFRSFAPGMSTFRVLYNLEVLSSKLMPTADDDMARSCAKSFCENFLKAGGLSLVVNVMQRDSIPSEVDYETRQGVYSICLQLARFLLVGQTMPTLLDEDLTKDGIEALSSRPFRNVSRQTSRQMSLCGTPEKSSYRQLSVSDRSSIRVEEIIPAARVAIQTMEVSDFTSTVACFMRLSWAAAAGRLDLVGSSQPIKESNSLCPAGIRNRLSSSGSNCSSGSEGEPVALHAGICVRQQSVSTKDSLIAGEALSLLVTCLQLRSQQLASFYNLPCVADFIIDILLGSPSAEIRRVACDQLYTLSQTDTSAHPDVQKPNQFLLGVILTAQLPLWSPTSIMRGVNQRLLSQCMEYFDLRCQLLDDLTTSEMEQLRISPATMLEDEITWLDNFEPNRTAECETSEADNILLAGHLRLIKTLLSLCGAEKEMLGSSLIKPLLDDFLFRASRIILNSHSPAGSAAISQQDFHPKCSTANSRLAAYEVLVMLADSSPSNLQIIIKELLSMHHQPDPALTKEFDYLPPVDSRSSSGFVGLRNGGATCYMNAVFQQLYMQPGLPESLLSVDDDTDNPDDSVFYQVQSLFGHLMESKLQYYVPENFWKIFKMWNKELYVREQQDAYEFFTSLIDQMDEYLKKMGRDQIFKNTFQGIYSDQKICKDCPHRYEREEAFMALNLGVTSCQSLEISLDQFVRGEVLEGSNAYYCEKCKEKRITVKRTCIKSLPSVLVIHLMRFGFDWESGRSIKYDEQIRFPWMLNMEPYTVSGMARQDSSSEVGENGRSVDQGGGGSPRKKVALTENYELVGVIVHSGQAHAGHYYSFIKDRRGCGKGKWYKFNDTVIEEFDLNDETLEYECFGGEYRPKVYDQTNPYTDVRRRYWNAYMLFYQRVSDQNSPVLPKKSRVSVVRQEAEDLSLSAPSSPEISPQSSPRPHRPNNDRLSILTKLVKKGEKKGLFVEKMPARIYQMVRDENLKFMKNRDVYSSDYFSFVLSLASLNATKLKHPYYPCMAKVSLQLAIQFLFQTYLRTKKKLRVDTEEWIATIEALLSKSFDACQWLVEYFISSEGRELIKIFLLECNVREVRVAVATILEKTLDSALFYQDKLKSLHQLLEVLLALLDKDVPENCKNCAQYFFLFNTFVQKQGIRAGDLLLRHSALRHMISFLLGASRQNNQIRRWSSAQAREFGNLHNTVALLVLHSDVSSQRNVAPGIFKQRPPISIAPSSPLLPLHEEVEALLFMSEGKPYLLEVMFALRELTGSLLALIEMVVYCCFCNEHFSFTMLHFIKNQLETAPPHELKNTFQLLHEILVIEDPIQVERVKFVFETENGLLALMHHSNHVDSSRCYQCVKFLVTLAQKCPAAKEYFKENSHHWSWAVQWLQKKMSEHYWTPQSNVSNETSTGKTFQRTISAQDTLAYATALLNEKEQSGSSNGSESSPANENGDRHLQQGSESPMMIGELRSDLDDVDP
UniProt Q96T88: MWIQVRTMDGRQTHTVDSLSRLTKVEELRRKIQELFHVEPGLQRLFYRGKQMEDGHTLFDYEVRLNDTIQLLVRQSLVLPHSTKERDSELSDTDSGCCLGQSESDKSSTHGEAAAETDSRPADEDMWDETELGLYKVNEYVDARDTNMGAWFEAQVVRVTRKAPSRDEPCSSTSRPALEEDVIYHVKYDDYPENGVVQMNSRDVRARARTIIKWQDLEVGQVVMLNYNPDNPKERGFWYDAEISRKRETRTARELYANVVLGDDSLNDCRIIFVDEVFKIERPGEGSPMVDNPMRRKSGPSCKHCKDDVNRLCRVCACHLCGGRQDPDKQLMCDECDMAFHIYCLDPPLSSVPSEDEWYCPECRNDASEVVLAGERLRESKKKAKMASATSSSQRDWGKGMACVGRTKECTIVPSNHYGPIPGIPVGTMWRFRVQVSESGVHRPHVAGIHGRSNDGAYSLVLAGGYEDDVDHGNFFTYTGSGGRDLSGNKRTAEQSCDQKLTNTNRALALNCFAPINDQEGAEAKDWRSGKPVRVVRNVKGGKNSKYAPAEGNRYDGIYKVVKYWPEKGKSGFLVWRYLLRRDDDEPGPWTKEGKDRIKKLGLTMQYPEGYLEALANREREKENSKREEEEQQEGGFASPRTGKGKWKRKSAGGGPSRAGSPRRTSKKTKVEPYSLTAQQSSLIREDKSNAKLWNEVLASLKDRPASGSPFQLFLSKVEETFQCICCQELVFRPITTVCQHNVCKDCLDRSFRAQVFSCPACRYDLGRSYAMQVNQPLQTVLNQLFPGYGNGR

The targets below were run with Cc1cc(ccc1-c1ccccc1)C(=O)N1CCCN(CC1)C(=O)CCl [compound 10] (assay: probe-labelled cysteine peptide fold change vs DMSO (competition) (log2 fold change); higher = less target engagement (more negative = stronger competition)). Details: 10 µM; THP-1; incubation time: 4 h.
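Note: competitive profiling in live THP-1 cells: cysteine peptides tagged with an iodoacetamide desthiobiotin (IA-DTB) probe, intensity after compound treatment relative to DMSO-treated cells.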

Target | probe-labelled cysteine peptide fold change
UNC45A_Q9H3U1_800_AATECMCNLAMSK (UniProt Q9H3U1) | 0.0257
UHRF1BP1L_A0JNW5_1235_HYLCNRPVGSDQK (UniProt A0JNW5) | -0.0376
UQCRC2_P22695_125_ENMAYTVECLR (UniProt P22695) | 0.0918
USP19_O94966_102_EGACEDPHDLLATPTPELLLDWR (UniProt O94966) | -0.326
URI1_O94763_268_NTNVNAMHQVTDSHTPCHK (UniProt O94763) | -0.157
UGDH_O60701_64_EVVESCR (UniProt O60701) | 0.0863
USP14_P54578_415_YEPFSFADDIGSNNCGYYDLQAVLTHQGR (UniProt P54578) | -0.0713
USP3_Q9Y6I4_98_CDDFVVNDTK (UniProt Q9Y6I4) | -0.0308
USP47_Q96K76_314_CLECGYEGWR (UniProt Q96K76) | 0.156
UNK_Q9C0B0_272_CENGDACQYCHTR (UniProt Q9C0B0) | 0.298
UROS_P10746_143_ESSALPLLFPCGNLKR (UniProt P10746) | -0.128
USP4_Q13107_500_VMEVFLVPADPHCRPTQYR (UniProt Q13107) | 0.0133
UCHL3_P15374_95_QTISNACGTIGLIHAIANNK (UniProt P15374) | -0.157
USP16_Q9Y5T5_509_EYCVNQK (UniProt Q9Y5T5) | -0.507
USP48_Q86UV5_514_WLDESTPTKPIDNHACLCSHDK (UniProt Q86UV5) | -0.0953
UHRF2_Q96PU4_541_ALALNCDAPLDDK (UniProt Q96PU4) | -0.274
USP7_Q93009_510_HCTNAYMLVYIR (UniProt Q93009) | -0.0456
USP24_Q9UPU5_1628_CSTANSR (UniProt Q9UPU5) | -0.0669
UHRF1_Q96T88_727+739_VEETFQCICCQELVFRPITTVCQHNVCK (UniProt Q96T88) | -0.0208
UROS_P10746_73_AVEAAELCLEQNNKTEVWER (UniProt P10746) | 0.152
UNG_P13051_166_VVILGQDPYHGPNQAHGLCFSVQRPVPPPPSLENIYK (UniProt P13051) | 0.259

Same assay, conditions: 50 µM; THP-1; incubation time: 4 h

Target | probe-labelled cysteine peptide fold change
UBR7_Q8N806_374_VQQVELICEYNDLK (UniProt Q8N806) | -0.293
UPF3B_Q9BZI7_453_LCPPDDSTK (UniProt Q9BZI7) | 0.0744
UGP2_Q16851_276_RCEFVMEVTNK (UniProt Q16851) | 0.165
USP39_Q53GS9_306_AHVSPHEMLQAVVLCSK (UniProt Q53GS9) | 0.301
UFSP2_Q9NUQ7_302_IDDNGWGCAYR (UniProt Q9NUQ7) | 0.505
UBTF_P17480_68_DFSGDMCK (UniProt P17480) | -0.13
USP4_Q13107_464_STLVCPECAK (UniProt Q13107) | -0.134
UGDH_O60701_20+27_ICCIGAGYVGGPTCSVIAHMCPEIR (UniProt O60701) | -0.0364
URB2_Q14146_1380_LHNVLFSILQCHPK (UniProt Q14146) | 0.95
UCHL5_Q9Y5K5_88_QVINNACATQAIVSVLLNCTHQDVHLGETLSEFK (UniProt Q9Y5K5) | -0.205
USP40_Q9NVE5_832_MGSSLGLCLGK (UniProt Q9NVE5) | -0.176
USF1_P22415_248_ACDYIQELR (UniProt P22415) | 0.00562
USP7_Q93009_300_SFGWETLDSFMQHDVQELCR (UniProt Q93009) | -0.00405
UPF1_Q92900_675_QLILVGDHCQLGPVVMCK (UniProt Q92900) | -0.178
UBTD2_Q8WUN7_152_SDIETLDIPEPPPNSGYECQLR (UniProt Q8WUN7) | 0.185
UGGT1_Q9NYU2_1475_SLPQEWLWCETWCDDASK (UniProt Q9NYU2) | 0.133
UNC45A_Q9H3U1_800_AATECMCNLAMSK (UniProt Q9H3U1) | -0.371
UHRF1BP1L_A0JNW5_1235_HYLCNRPVGSDQK (UniProt A0JNW5) | -0.282
UQCRC2_P22695_125_ENMAYTVECLR (UniProt P22695) | 0.227

Target | probe-labelled cysteine peptide fold change
USP19_O94966_102_EGACEDPHDLLATPTPELLLDWR (UniProt O94966) | -0.135
URI1_O94763_268_NTNVNAMHQVTDSHTPCHK (UniProt O94763) | -0.238
UGDH_O60701_64_EVVESCR (UniProt O60701) | 0.0261
USP14_P54578_415_YEPFSFADDIGSNNCGYYDLQAVLTHQGR (UniProt P54578) | 0.157
USP3_Q9Y6I4_98_CDDFVVNDTK (UniProt Q9Y6I4) | -0.0909
USP47_Q96K76_314_CLECGYEGWR (UniProt Q96K76) | -0.0797
UNK_Q9C0B0_272_CENGDACQYCHTR (UniProt Q9C0B0) | 0.317
UROS_P10746_143_ESSALPLLFPCGNLKR (UniProt P10746) | -0.405
USP4_Q13107_500_VMEVFLVPADPHCRPTQYR (UniProt Q13107) | 0.124
UCHL3_P15374_95_QTISNACGTIGLIHAIANNK (UniProt P15374) | -1.45
USP16_Q9Y5T5_509_EYCVNQK (UniProt Q9Y5T5) | -0.529
USP48_Q86UV5_514_WLDESTPTKPIDNHACLCSHDK (UniProt Q86UV5) | -0.81
UHRF2_Q96PU4_541_ALALNCDAPLDDK (UniProt Q96PU4) | -0.113
USP7_Q93009_510_HCTNAYMLVYIR (UniProt Q93009) | 0.138
USP24_Q9UPU5_1628_CSTANSR (UniProt Q9UPU5) | 0.116
UHRF1_Q96T88_727+739_VEETFQCICCQELVFRPITTVCQHNVCK (UniProt Q96T88) | -0.18
UROS_P10746_73_AVEAAELCLEQNNKTEVWER (UniProt P10746) | -0.796
UNG_P13051_166_VVILGQDPYHGPNQAHGLCFSVQRPVPPPPSLENIYK (UniProt P13051) | 0.0594
